# Test results published in PubChem BioAssay AID504467 (National Center for Advancing Translational Sciences (NCATS), 2011).
# About 7,700 (2.3%) of roughly 330,000 compounds were called active. This list was built around the results that the source calls inconclusive (neither active nor inactive); the mix of calls is not that of the screen. The call rests on the fitted dose curve; in most records, active means well fitted inhibition curve with a large enough effect; inconclusive means small, poorly fitted or top-dose-only effect, or effect the other way; inactive means flat fitted curve, though single readings scatter. Potencies of inconclusive entries are doubtful fits and often do not repeat.
# Test: qHTS screen for small molecules that inhibit ELG1-dependent DNA repair in human embryonic kidney (HEK293T) cells expressing luciferase-tagged ELG1; further: nearly all actives have a fitted effect of over 55% in size
# Conditions: HEK293T ELG1-luciferase reporter, luminescence, 16 h, DNA damage induced by 5-fluorouridine; activity change, negative = inhibition: at 46.1 µM (top of the series)
# Summary of the method: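 DMSO vehicle served as the neutral condition. Each well held 2,000 cells given 5-fluorouridine plus compound; after 16 hr at 37 °C/5% CO2, ONE-Glo was added and luciferase measured 30 min later.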
# On the % scale 0 is the no-effect control and ±100 the full control effect; potency means the concentration at half of the fitted maximal effect.
Compound,Potency,"activity change, negative = inhibition"
CC(Nc1nc(N2CCCC2)nc2ccccc12)c1ccccc1 (centres undefined),"inconclusive: 7.31 µM [inhibitor, partial curve]",–
FC(F)(F)c1ccc(-c2nc(=S)[nH][nH]2)cc1,"inconclusive: 18.3 µM [activator, partial curve, poor fit]",–
Cc1cc([N+](=O)[O-])ccc1NC(=S)NC(=O)Cc1ccccc1,–,inactive: 5.09%
O=c1cc(NC2CCCCC2)c2ccccc2o1,"inconclusive: 14.6 µM [inhibitor, partial curve]",–
CC(=O)n1nc(-c2ccccc2)nc1NCc1ccc(F)cc1,"inconclusive: 29.1 µM [activator, single point]",–
COc1cccc(NC(=O)C(=O)NCCC2CCCCN2S(=O)(=O)c2cccs2)c1 (centres undefined),"inconclusive: 3.66 µM [activator, partial curve]",–
C=CC(=O)Nc1sc2c(c1C(N)=O)CCCC2,"inconclusive: 31.6 µM [inhibitor, single point]",–
CCC(=O)c1cc2c(C)cc(=O)oc2c(C)c1O,"inconclusive: 13 µM [inhibitor, partial curve, poor fit]",–
CCc1nnc2n1N=C(c1ccc(Cl)cc1)CS2,"inconclusive: 25.9 µM [activator, single point]",–
CCC1(C)Cc2ccccc2-c2nc(SC)[nH]c(=O)c21 (centres undefined),"inconclusive: 32.6 µM [inhibitor, single point]",–
O=C(Nc1nccs1)c1nc[nH]c1C(=O)NCc1ccccc1,–,inactive: 12.8%
CC(C)Oc1ccc(CNC(=O)Cn2c(=O)oc3ccccc32)cc1,–,inactive: -3.03%
COc1ccccc1N1CCN(/N=C/c2c(C)nn(-c3ccccc3)c2C)CC1,"inconclusive: 23.1 µM [inhibitor, single point]",–
O=C(/C=C\c1ccco1)Nc1nc(-c2ccc3ccccc3c2)cs1,"inconclusive: 29.1 µM [inhibitor, single point]",–
O=C(CCCSc1nc2ccccc2c(=O)[nH]1)c1ccccc1,–,inactive: 17%
Cc1nn(Cc2ccc(Cl)cc2)c(C)c1NC(=O)c1noc2c1CCc1ccccc1-2,"inconclusive: 29.1 µM [inhibitor, single point]",–
COc1cccc(CN(C)CC(O)COC(c2ccccc2)c2ccccc2C)c1 (centres undefined),–,inactive: -14%
O=C(COc1ccc(Br)cc1Cl)NC(=O)Nc1ccc2c(c1)OCCO2,"inconclusive: 14.6 µM [activator, partial curve]",–
CCCCn1c(N)c(N(CCC(C)C)C(=O)CSc2nnc(Nc3ccccc3)s2)c(=O)[nH]c1=O,"inconclusive: 16.4 µM [inhibitor, single point]",–
CC(C)N(C(C)C)S(=O)(=O)c1ccc(NC(=O)c2cnccn2)cc1,"inconclusive: 7.08 µM [activator, partial curve, poor fit]",–
COc1ccc(S(=O)(=O)N/N=C/c2ccc(OCCN3CCOCC3)c(OC)c2)cc1,"inconclusive: 18.4 µM [activator, partial curve]",–
CCCCC[n+]1ccn(C2=C([O-])c3ccccc3C(=O)/C2=N\S(=O)(=O)c2ccc(Br)cc2)c1,"inconclusive: 20.6 µM [inhibitor, partial curve, poor fit]",–

# Looked up one by one from above (2):
Compound,Potency,"activity change, negative = inhibition"
Cc1nn(Cc2ccc(Cl)cc2)c(C)c1NC(=O)c1noc2c1CCc1ccccc1-2,"inconclusive: 29.1 µM [inhibitor, single point]",–
COc1ccc(S(=O)(=O)N/N=C/c2ccc(OCCN3CCOCC3)c(OC)c2)cc1,"inconclusive: 18.4 µM [activator, partial curve]",–

# Further results follow.

Compound,Potency,"activity change, negative = inhibition"
CC1CCN(C(=O)NC(=O)c2ccc(Cl)cc2)CC1,"inconclusive: 14.6 µM [activator, partial curve, poor fit]",–
O=C(CCN1CCN(c2ccccc2)CC1)N/N=C/c1ccccc1O,"inconclusive: 3.66 µM [inhibitor, single point]",–
C=CCOc1ccc(/C=C/C(=O)OCC(=O)NCC(=O)Nc2c(C)cc(C)cc2C)cc1,"inconclusive: 6.51 µM [activator, single point]",–
COc1ccc(S(=O)(=O)NCc2cc(-c3ccccc3Cl)no2)cc1,"inconclusive: 29.1 µM [inhibitor, single point]",–
COCCCN=C1NN=C(c2cc(C)n(-c3ccccc3F)c2C)CS1,"inconclusive: 1.64 µM [activator, partial curve]",–
Cc1ccc(S(=O)(=O)N2CCC[C@H]2C(=O)OCC(=O)Nc2ccc3c(c2)OCO3)cc1,–,inactive: 20.3%
Cn1nc([N+](=O)[O-])nc1Oc1ccccc1C(=O)N1CCOCC1,–,inactive: 2.36%
CNC[C@H]1Oc2c(NS(=O)(=O)c3ccc(OC)cc3)cccc2C(=O)N([C@H](C)CO)C[C@H]1C,"inconclusive: 20.6 µM [activator, partial curve, poor fit]",–
CC1=C(C)CC(C(=O)NCCCN2CCCC2=O)C(C(=O)O)C1 (centres undefined),–,inactive: -1.47%
CS(=O)(=O)NNC(=O)CN1C(=O)C2C3C=CC(C3)C2C1=O (centres undefined),"inconclusive: 20.6 µM [activator, single point]",–
COc1ccc(CC(=O)Nc2ccc(C)c(S(=O)(=O)N3CCCCCC3)c2)cc1,"inconclusive: 16.4 µM [inhibitor, partial curve]",–
O=[N+]([O-])c1cncc([N+](=O)[O-])c1Nc1cccc(O)c1,"inconclusive: 29.1 µM [inhibitor, single point]",–
CSc1ccc(/C=C/C(=O)OCC(=O)NC(C)C)cc1,"inconclusive: 20.6 µM [inhibitor, single point]",–
COC(=O)c1c(-c2ccccc2)csc1NC1=NS(=O)(=O)c2ccccc21,"inconclusive: 2.91 µM [activator, full curve]",–
O=C(CN1CCN(Cc2ccccc2)CC1)Nc1ccc2c(c1)CCC2,"inconclusive: 6.51 µM [inhibitor, full curve, poor fit]",–
COC(=O)[C@H](Cc1ccccc1)NC(=O)NCCc1ccc(F)cc1,–,inactive: 0%
O=C(c1ccc(CSc2ccccc2)cc1)N1CCCCCC1,"inconclusive: 16.4 µM [activator, partial curve]",–
CC(=O)Nc1ccccc1-c1nc2ccc(C(=O)N3CCN(c4cccc(C)c4)C(C)C3)cc2[nH]c1=O (centres undefined),"inconclusive: 25.9 µM [inhibitor, partial curve]",–
COc1ccccc1OCCn1cc(/C=C(\C#N)C(=O)NCc2ccco2)c2ccccc21,"inconclusive: 23.1 µM [inhibitor, partial curve]",–
O=C(Cc1ccccc1)Nc1ccc(CN2CCOCC2)cc1,"inconclusive: 20.6 µM [activator, partial curve]",–
O=c1[nH]c(Nc2nc3ccccc3o2)nc2c1CCCC2,"inconclusive: 2.59 µM [activator, partial curve]",–
O=C(O)C(Cc1ccccc1)Nc1ccc([N+](=O)[O-])cc1[N+](=O)[O-] (centres undefined),"inconclusive: 29.1 µM [activator, single point]",–

Compound,Potency,"activity change, negative = inhibition"
COc1ccc(C(=O)C2CCCN(C(=O)c3cccc(N(C)C)c3)C2)cc1OC (centres undefined),–,inactive: 2.61%
Cc1ccn2c(=O)nc(SCC(=O)N3N=C(c4cccs4)CC3c3ccc(F)cc3)nc2c1 (centres undefined),"inconclusive: 20.6 µM [inhibitor, single point]",–
CCOC(=O)C1CCCN(C(=O)c2ccccc2NS(=O)(=O)c2ccc(F)cc2)C1 (centres undefined),"inconclusive: 29.1 µM [inhibitor, single point]",–
COc1cc2[nH]c(=S)n(Cc3ccc(C)cc3)c(=O)c2cc1OC,"inconclusive: 18.3 µM [activator, single point]",–
CC1=CC(C)C(C(=O)O)C(C(=O)O)C1 (centres undefined),"inconclusive: 7.31 µM [inhibitor, single point]",–
CC(=O)Nc1ccc(NC(=O)CSc2ccc(-c3ccc(-n4ccnc4)cc3)nn2)cc1,"inconclusive: 25.9 µM [activator, single point]",–
O=C(CNC(=S)N(Cc1ccccc1F)C1CCCCC1)NCC1CCCO1 (centres undefined),"inconclusive: 14.6 µM [inhibitor, partial curve]",–
CCn1cc(C(=O)N[C@H](C(=O)NCCN2CCOCC2)C(C)C)c(=O)c2cc3c(cc21)OCO3,"inconclusive: 14.6 µM [activator, partial curve]",–
COc1ccc(OCc2cc(C(=O)N3CCCCCC3)no2)c(Cl)c1,"inconclusive: 23.1 µM [activator, partial curve]",–
CCCCOC(=O)CCn1c(=S)oc2ccccc21,"inconclusive: 20.6 µM [activator, partial curve, poor fit]",–
O=C(C1CC(c2ccc(F)cc2)=NO1)N1CCN(Cc2ccccc2)CC1 (centres undefined),"inconclusive: 29.1 µM [activator, single point]",–
CCOC(=O)CCSc1nc(C)c2cc(C)c(C)cc2n1,"inconclusive: 23.1 µM [activator, single point]",–
CCCCn1c(SCC(=O)Nc2ccc3c(c2)CCC3)nc2ccccc2c1=O,–,inactive: 9.57%
COc1ccc(NC(=O)/C(C#N)=C/c2cc(C)n(-c3ccc(N4CCOCC4)c([N+](=O)[O-])c3)c2C)cc1,active: 2.91 µM,–
CN(C)C(=O)CCc1ccc2c3c([nH]c2c1)[C@]1(C)[C@@H](C(=O)N2CCOCC2)C[C@H](CC(=O)NC(C)(C)C)C(=O)N1CC3,"inconclusive: 29.1 µM [activator, partial curve, poor fit]",–
C=CCn1c(=S)[nH]c2scc(-c3ccc(C)o3)c2c1=O,"inconclusive: 29.1 µM [inhibitor, single point]",–
CC(=O)Nc1ccccc1-c1nc2cc(C#N)c(C#N)cc2[nH]c1=O,"inconclusive: 25.9 µM [activator, partial curve, poor fit]",–
Cc1ccc(S(=O)(=O)Nc2ccc3c(c2)CCC3)cc1,–,inactive: 5.68%
O=C(COC(=O)c1ccccc1O)Nc1ccc(OC(F)F)cc1,"inconclusive: 16.4 µM [activator, partial curve]",–
COc1ccc(CCNCC(=O)Nc2ccc(OC(F)F)cc2)cc1,–,inactive: -0.453%

# Quoted from the listing:
# For activity change, negative = inhibition, CCCCn1c(SCC(=O)Nc2ccc3c(c2)CCC3)nc2ccccc2c1=O is entered as inactive: 9.57%
# For Potency, COc1ccc(OCc2cc(C(=O)N3CCCCCC3)no2)c(Cl)c1 is entered as inconclusive: 23.1 µM [activator, partial curve]
